Data published in the supplement of paper PMC6078165.
± gives the standard deviation of the averaged measurements. Values are relative to the signal before dosing, not to a vehicle control; the signal also falls without drug.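 Fibroblast labels denote human fibroblasts, mainly primary ones from uterus (C12385, HUF), lung (H6013), bone (Hs27A), adrenal (HADF) and skin (WS1), plus mammary HMF and breast cancer-associated Hs343T. Cancer cells are basal-like or mesenchymal-like triple-negative breast cancer lines. A hit is a response shift exceeding 3x replicate standard deviation. The tissue of the other fibroblasts is not given here.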

System: BT20
Test: relative JC-1 red fluorescence (viability) vs pre-drug, coculture with fibroblast (fraction); higher = more viable cancer cells
Conditions: 10 µM
Protocol: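 JC-1 labelled TNBC cells cocultured 1:1 (1,500 cells each) with CellTrace Violet stained primary or stromal fibroblasts in 384-well plates in FluoroBrite medium, treated with one of 42 anticancer drugs at 0.1, 1, 10 or 100 uM. JC-1 red fluorescence (mitochondrial integrity in cancer cells only) was read by plate reader every 8 h for 72 h. Values are normalised to each well's pre-drug value. The stock of one drug was tenfold lower, so its dose labels may be too high.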

## CCN(CC)CCNC(=O)c1c(C)[nH]c(/C=C2\C(=O)Nc3ccc(F)cc32)c1C [Sunitinib]
8 h, coculture fibroblast: C12385
  relative JC-1 red fluorescence: 0.947 ± 0.029
8 h, coculture fibroblast: H6013
  relative JC-1 red fluorescence: 0.71 ± 0.018
8 h, coculture fibroblast: H6019
  relative JC-1 red fluorescence: 0.899 ± 0.0097
8 h, coculture fibroblast: H6076
  relative JC-1 red fluorescence: 0.824 ± 0.13
8 h, coculture fibroblast: H6231
  relative JC-1 red fluorescence: 0.752 ± 0.045
8 h, coculture fibroblast: HADF
  relative JC-1 red fluorescence: 0.73 ± 0.03
8 h, coculture fibroblast: HCFa
  relative JC-1 red fluorescence: 0.887 ± 0.15
8 h, coculture fibroblast: HCPF
  relative JC-1 red fluorescence: 0.819 ± 0.061
8 h, coculture fibroblast: HHSteC
  relative JC-1 red fluorescence: 0.878 ± 0.024
8 h, coculture fibroblast: HMF
  relative JC-1 red fluorescence: 0.847 ± 0.11
8 h, coculture fibroblast: HPFa
  relative JC-1 red fluorescence: 0.967 ± 0.011
8 h, coculture fibroblast: HUF
  relative JC-1 red fluorescence: 0.9499 ± 0.0063
8 h, coculture fibroblast: Hs5
  relative JC-1 red fluorescence: 0.795 ± 0.029
8 h, coculture fibroblast: Hs27A
  relative JC-1 red fluorescence: 0.897 ± 0.048
8 h, coculture fibroblast: Hs343T
  relative JC-1 red fluorescence: 0.817 ± 0.072
8 h, coculture fibroblast: WS1
  relative JC-1 red fluorescence: 0.919 ± 0.024
16 h, coculture fibroblast: C12385
  relative JC-1 red fluorescence: 0.924 ± 0.039
16 h, coculture fibroblast: H6013
  relative JC-1 red fluorescence: 0.9 ± 0.1
16 h, coculture fibroblast: H6019
  relative JC-1 red fluorescence: 0.91 ± 0.023
16 h, coculture fibroblast: H6076
  relative JC-1 red fluorescence: 0.85 ± 0.062
16 h, coculture fibroblast: H6231
  relative JC-1 red fluorescence: 0.707 ± 0.021
16 h, coculture fibroblast: HADF
  relative JC-1 red fluorescence: 0.963 ± 0.013
16 h, coculture fibroblast: HCFa
  relative JC-1 red fluorescence: 0.858 ± 0.037
16 h, coculture fibroblast: HCPF
  relative JC-1 red fluorescence: 0.814 ± 0.028
16 h, coculture fibroblast: HHSteC
  relative JC-1 red fluorescence: 0.979 ± 0.011
16 h, coculture fibroblast: HMF
  relative JC-1 red fluorescence: 0.868 ± 0.012
16 h, coculture fibroblast: HPFa
  relative JC-1 red fluorescence: 0.901 ± 0.074
16 h, coculture fibroblast: HUF
  relative JC-1 red fluorescence: 0.908 ± 0.014
16 h, coculture fibroblast: Hs5
  relative JC-1 red fluorescence: 0.862 ± 0.14
16 h, coculture fibroblast: Hs27A
  relative JC-1 red fluorescence: 0.762 ± 0.018
16 h, coculture fibroblast: Hs343T
  relative JC-1 red fluorescence: 0.773 ± 0.017
16 h, coculture fibroblast: WS1
  relative JC-1 red fluorescence: 0.895 ± 0.048
24 h, coculture fibroblast: C12385
  relative JC-1 red fluorescence: 0.894 ± 0.063
24 h, coculture fibroblast: H6013
  relative JC-1 red fluorescence: 0.806 ± 0.018
24 h, coculture fibroblast: H6019
  relative JC-1 red fluorescence: 0.928 ± 0.065
24 h, coculture fibroblast: H6076
  relative JC-1 red fluorescence: 0.873 ± 0.017
24 h, coculture fibroblast: H6231
  relative JC-1 red fluorescence: 0.817 ± 0.046
24 h, coculture fibroblast: HADF
  relative JC-1 red fluorescence: 0.787 ± 0.029
24 h, coculture fibroblast: HCFa
  relative JC-1 red fluorescence: 0.899 ± 0.12
24 h, coculture fibroblast: HCPF
  relative JC-1 red fluorescence: 0.806 ± 0.075
24 h, coculture fibroblast: HHSteC
  relative JC-1 red fluorescence: 0.806 ± 0.046
24 h, coculture fibroblast: HMF
  relative JC-1 red fluorescence: 0.883 ± 0.14
24 h, coculture fibroblast: HPFa
  relative JC-1 red fluorescence: 0.938 ± 0.017
24 h, coculture fibroblast: HUF
  relative JC-1 red fluorescence: 0.8959 ± 0.0066
24 h, coculture fibroblast: Hs5
  relative JC-1 red fluorescence: 0.838 ± 0.056
24 h, coculture fibroblast: Hs27A
  relative JC-1 red fluorescence: 0.905 ± 0.015
24 h, coculture fibroblast: Hs343T
  relative JC-1 red fluorescence: 0.903 ± 0.054
24 h, coculture fibroblast: WS1
  relative JC-1 red fluorescence: 0.885 ± 0.079
32 h, coculture fibroblast: C12385
  relative JC-1 red fluorescence: 0.847 ± 0.041
32 h, coculture fibroblast: H6013
  relative JC-1 red fluorescence: 0.714 ± 0.079
32 h, coculture fibroblast: H6019
  relative JC-1 red fluorescence: 0.905 ± 0.1
32 h, coculture fibroblast: H6076
  relative JC-1 red fluorescence: 0.71 ± 0.059
32 h, coculture fibroblast: H6231
  relative JC-1 red fluorescence: 0.656 ± 0.048
32 h, coculture fibroblast: HADF
  relative JC-1 red fluorescence: 0.719 ± 0.043
32 h, coculture fibroblast: HCFa
  relative JC-1 red fluorescence: 0.891 ± 0.074
32 h, coculture fibroblast: HCPF
  relative JC-1 red fluorescence: 0.664 ± 0.11
32 h, coculture fibroblast: HHSteC
  relative JC-1 red fluorescence: 0.679 ± 0.061
32 h, coculture fibroblast: HMF
  relative JC-1 red fluorescence: 0.938 ± 0.034
32 h, coculture fibroblast: HPFa
  relative JC-1 red fluorescence: 0.922 ± 0.085
32 h, coculture fibroblast: HUF
  relative JC-1 red fluorescence: 0.845 ± 0.016
32 h, coculture fibroblast: Hs5
  relative JC-1 red fluorescence: 0.724 ± 0.087
32 h, coculture fibroblast: Hs27A
  relative JC-1 red fluorescence: 0.835 ± 0.12
32 h, coculture fibroblast: Hs343T
  relative JC-1 red fluorescence: 0.921 ± 0.074
32 h, coculture fibroblast: WS1
  relative JC-1 red fluorescence: 0.852 ± 0.099
40 h, coculture fibroblast: C12385
  relative JC-1 red fluorescence: 0.8 ± 0.035
40 h, coculture fibroblast: H6013
  relative JC-1 red fluorescence: 0.594 ± 0.044
40 h, coculture fibroblast: H6019
  relative JC-1 red fluorescence: 0.891 ± 0.12
40 h, coculture fibroblast: H6076
  relative JC-1 red fluorescence: 0.578 ± 0.075
40 h, coculture fibroblast: H6231
  relative JC-1 red fluorescence: 0.557 ± 0.028
40 h, coculture fibroblast: HADF
  relative JC-1 red fluorescence: 0.601 ± 0.097
40 h, coculture fibroblast: HCFa
  relative JC-1 red fluorescence: 0.9077 ± 0.0047
40 h, coculture fibroblast: HCPF
  relative JC-1 red fluorescence: 0.551 ± 0.11
40 h, coculture fibroblast: HHSteC
  relative JC-1 red fluorescence: 0.535 ± 0.059
40 h, coculture fibroblast: HMF
  relative JC-1 red fluorescence: 0.881 ± 0.031
40 h, coculture fibroblast: HPFa
  relative JC-1 red fluorescence: 0.9 ± 0.1
40 h, coculture fibroblast: HUF
  relative JC-1 red fluorescence: 0.817 ± 0.048
40 h, coculture fibroblast: Hs5
  relative JC-1 red fluorescence: 0.743 ± 0.3
40 h, coculture fibroblast: Hs27A
  relative JC-1 red fluorescence: 0.769 ± 0.31
40 h, coculture fibroblast: Hs343T
  relative JC-1 red fluorescence: 0.864 ± 0.084
40 h, coculture fibroblast: WS1
  relative JC-1 red fluorescence: 0.824 ± 0.12
48 h, coculture fibroblast: C12385
  relative JC-1 red fluorescence: 0.758 ± 0.034
48 h, coculture fibroblast: H6013
  relative JC-1 red fluorescence: 0.496 ± 0.045
48 h, coculture fibroblast: H6019
  relative JC-1 red fluorescence: 0.885 ± 0.14
48 h, coculture fibroblast: H6076
  relative JC-1 red fluorescence: 0.504 ± 0.067
48 h, coculture fibroblast: H6231
  relative JC-1 red fluorescence: 0.489 ± 0.0079
48 h, coculture fibroblast: HADF
  relative JC-1 red fluorescence: 0.51 ± 0.055
48 h, coculture fibroblast: HCFa
  relative JC-1 red fluorescence: 0.86 ± 0.049
48 h, coculture fibroblast: HCPF
  relative JC-1 red fluorescence: 0.471 ± 0.12
48 h, coculture fibroblast: HHSteC
  relative JC-1 red fluorescence: 0.443 ± 0.062
48 h, coculture fibroblast: HMF
  relative JC-1 red fluorescence: 0.839 ± 0.036
48 h, coculture fibroblast: HPFa
  relative JC-1 red fluorescence: 0.873 ± 0.12
48 h, coculture fibroblast: HUF
  relative JC-1 red fluorescence: 0.791 ± 0.07
48 h, coculture fibroblast: Hs5
  relative JC-1 red fluorescence: 0.71 ± 0.3
48 h, coculture fibroblast: Hs27A
  relative JC-1 red fluorescence: 0.622 ± 0.21
48 h, coculture fibroblast: Hs343T
  relative JC-1 red fluorescence: 0.816 ± 0.1
48 h, coculture fibroblast: WS1
  relative JC-1 red fluorescence: 0.808 ± 0.12
56 h, coculture fibroblast: C12385
  relative JC-1 red fluorescence: 0.742 ± 0.022
56 h, coculture fibroblast: H6013
  relative JC-1 red fluorescence: 0.453 ± 0.0063
56 h, coculture fibroblast: H6019
  relative JC-1 red fluorescence: 0.88 ± 0.17
56 h, coculture fibroblast: H6076
  relative JC-1 red fluorescence: 0.442 ± 0.061
56 h, coculture fibroblast: H6231
  relative JC-1 red fluorescence: 0.388 ± 0.019
56 h, coculture fibroblast: HADF
  relative JC-1 red fluorescence: 0.456 ± 0.051
56 h, coculture fibroblast: HCFa
  relative JC-1 red fluorescence: 0.859 ± 0.029
56 h, coculture fibroblast: HCPF
  relative JC-1 red fluorescence: 0.394 ± 0.083
56 h, coculture fibroblast: HHSteC
  relative JC-1 red fluorescence: 0.357 ± 0.051
56 h, coculture fibroblast: HMF
  relative JC-1 red fluorescence: 0.778 ± 0.078
56 h, coculture fibroblast: HPFa
  relative JC-1 red fluorescence: 0.842 ± 0.1
56 h, coculture fibroblast: HUF
  relative JC-1 red fluorescence: 0.762 ± 0.091
56 h, coculture fibroblast: Hs5
  relative JC-1 red fluorescence: 0.669 ± 0.31
56 h, coculture fibroblast: Hs27A
  relative JC-1 red fluorescence: 0.53 ± 0.17
56 h, coculture fibroblast: Hs343T
  relative JC-1 red fluorescence: 0.757 ± 0.086
56 h, coculture fibroblast: WS1
  relative JC-1 red fluorescence: 0.792 ± 0.13
64 h, coculture fibroblast: C12385
  relative JC-1 red fluorescence: 0.708 ± 0.025
64 h, coculture fibroblast: H6013
  relative JC-1 red fluorescence: 0.366 ± 0.0076
64 h, coculture fibroblast: H6019
  relative JC-1 red fluorescence: 0.865 ± 0.19
64 h, coculture fibroblast: H6076
  relative JC-1 red fluorescence: 0.413 ± 0.057
64 h, coculture fibroblast: H6231
  relative JC-1 red fluorescence: 0.333 ± 0.022
64 h, coculture fibroblast: HADF
  relative JC-1 red fluorescence: 0.413 ± 0.032
64 h, coculture fibroblast: HCFa
  relative JC-1 red fluorescence: 0.886 ± 0.043
64 h, coculture fibroblast: HCPF
  relative JC-1 red fluorescence: 0.349 ± 0.087
64 h, coculture fibroblast: HHSteC
  relative JC-1 red fluorescence: 0.316 ± 0.021
64 h, coculture fibroblast: HMF
  relative JC-1 red fluorescence: 0.725 ± 0.092
64 h, coculture fibroblast: HPFa
  relative JC-1 red fluorescence: 0.807 ± 0.11
64 h, coculture fibroblast: HUF
  relative JC-1 red fluorescence: 0.719 ± 0.12
64 h, coculture fibroblast: Hs5
  relative JC-1 red fluorescence: 0.629 ± 0.31
64 h, coculture fibroblast: Hs27A
  relative JC-1 red fluorescence: 0.446 ± 0.12
64 h, coculture fibroblast: Hs343T
  relative JC-1 red fluorescence: 0.719 ± 0.072
64 h, coculture fibroblast: WS1
  relative JC-1 red fluorescence: 0.778 ± 0.14
72 h, coculture fibroblast: C12385
  relative JC-1 red fluorescence: 0.68 ± 0.034
72 h, coculture fibroblast: H6013
  relative JC-1 red fluorescence: 0.332 ± 0.016
72 h, coculture fibroblast: H6019
  relative JC-1 red fluorescence: 0.73 ± 0.03
72 h, coculture fibroblast: H6076
  relative JC-1 red fluorescence: 0.352 ± 0.043
72 h, coculture fibroblast: H6231
  relative JC-1 red fluorescence: 0.27 ± 0.024
72 h, coculture fibroblast: HADF
  relative JC-1 red fluorescence: 0.352 ± 0.028
72 h, coculture fibroblast: HCFa
  relative JC-1 red fluorescence: 0.835 ± 0.017
72 h, coculture fibroblast: HCPF
  relative JC-1 red fluorescence: 0.309 ± 0.068
72 h, coculture fibroblast: HHSteC
  relative JC-1 red fluorescence: 0.262 ± 0.0091
72 h, coculture fibroblast: HMF
  relative JC-1 red fluorescence: 0.646 ± 0.13
72 h, coculture fibroblast: HPFa
  relative JC-1 red fluorescence: 0.778 ± 0.11
72 h, coculture fibroblast: HUF
  relative JC-1 red fluorescence: 0.681 ± 0.14
72 h, coculture fibroblast: Hs5
  relative JC-1 red fluorescence: 0.594 ± 0.34
72 h, coculture fibroblast: Hs27A
  relative JC-1 red fluorescence: 0.384 ± 0.1
72 h, coculture fibroblast: Hs343T
  relative JC-1 red fluorescence: 0.677 ± 0.066
72 h, coculture fibroblast: WS1
  relative JC-1 red fluorescence: 0.777 ± 0.14
